Results taken from PubChem BioAssay AID274 (DTP/NCI, 2004).
The list is a part of this screen's results and no random one: it covers a few groups of compounds. Other doses and runs of a compound may be missing. T/C is the treated group as % of the vehicle group. Some entries give survivors of the animals treated and no T/C: the source holds a T/C of zero for them, seemingly a mark for toxic or unscored doses. Some doses without a T/C left all or most animals alive at the check, yet need not have been tolerated: survival well below the control is almost never listed, so the zero probably covers shortened survival too. Survivors were counted at the toxicity check, usually on the fifth day, unless a day is given; later deaths do not show. Schedules are NCI's codes, taken here to give the interval after Q, in days (D) or hours (H), and the number of doses after X. Where survival is the endpoint, this PubChem deposit counts one and a half times the control or more as active, and values a quarter to a half above the control carry no call in these data; other NCI protocols may use other cut-offs. Some T/C values are marked as having no survivor count here; that says nothing about deaths at the dose. Some entries hold several experiments; the results are listed from low to high.

System: BDF1 mice, Lewis lung carcinoma iv, survival T/C
Test: NCI In Vivo Anticancer Drug Screen. Data for tumor model Lewis Lung Carcinoma (intravenous) in B6D2F1 (BDF1) mice
Details: T/C endpoint: median survival time, higher T/C = longer survival
Description: The antitumor activity of compounds was measured in mice bearing transplantable tumors. Survival or tumor size were measured and the results are expressed as the measurement made in the treated group (T) divided by the measurement made in the vehicle treated control group (C). The tumor model used in this assay is Lewis Lung Carcinoma (intravenous) in B6D2F1 (BDF1) mice

With `O=NN(CCSCCCl)C(=O)NC1CCCCC1` the T/C (dose: 3.0 mg/kg/injection, schedule: Q01DX009 (ip), vehicle: saline with Tween-80) was 98 % of control, the T/C (dose: 6.0 mg/kg/injection, schedule: Q01DX009 (ip), vehicle: saline with Tween-80) was 108 % of control and the T/C (dose: 12.0 mg/kg/injection, schedule: Q01DX009 (ip), vehicle: saline with Tween-80) was 97 % of control. For the same compound, the T/C (dose: 25.0 mg/kg/injection, schedule: Q01DX009 (ip), vehicle: saline with Tween-80) was 108 % of control.
In the case of `NC1CCCCC1.NP(=O)(O)N(CCCl)CCCl`, the T/C (dose: 25.0 mg/kg/injection, schedule: Q01DX001 (ip), vehicle: water) is reported as 134 % of control, the T/C (dose: 50.0 mg/kg/injection, schedule: Q01DX001 (ip), vehicle: water) is reported as 123 % of control and the T/C (dose: 100.0 mg/kg/injection, schedule: Q01DX001 (ip), vehicle: water) is reported as 93 % of control. For the same compound, the survivor count (dose: 200.0 mg/kg/injection, schedule: Q01DX001 (ip), vehicle: water) was 7 of 10.
For `CC1=CC(=O)C(N(CCCl)CCCl)=CC1=O`, the T/C (dose: 0.78 mg/kg/injection, schedule: Q01DX009 (ip), vehicle: Klucel (hydroxypropylcellulose) (HPC)) was 108 % of control [survivor count not shown], the T/C (dose: 1.56 mg/kg/injection, schedule: Q01DX009 (ip), vehicle: Klucel (hydroxypropylcellulose) (HPC)) was 116 [survivor count not shown] and 126 % of control [survivor count not shown] and the T/C (dose: 3.13 mg/kg/injection, schedule: Q01DX009 (ip), vehicle: Klucel (hydroxypropylcellulose) (HPC)) was 129 % of control [survivor count not shown].
`C[N+](CCCl)(CCCl)Cc1ccc([N+](=O)[O-])cc1` was tested, and the T/C (dose: 1.56 mg/kg/injection, schedule: Q01DX009 (ip), vehicle: saline) was 105 % of control [survivor count not shown], the T/C (dose: 3.13 mg/kg/injection, schedule: Q01DX009 (ip), vehicle: saline) was 98 % of control [survivor count not shown] and the T/C (dose: 6.25 mg/kg/injection, schedule: Q01DX009 (ip), vehicle: saline) was 104 [survivor count not shown] and 112 % of control [survivor count not shown]. For the same compound, the T/C (dose: 12.5 mg/kg/injection, schedule: Q01DX009 (ip), vehicle: saline) was 102 % of control [survivor count not shown].
